From PubChem BioAssay AID2685 (National Center for Advancing Translational Sciences (NCATS), 2010)
This is one part of the list. Shown are side measurements of this screen, not its main read-out; they come without a call. Most of these compounds were active or inconclusive in the main read-out, so they are no random draw. The note in brackets gives the kind of curve behind each potency; many fits are weak.

Experiment: qHTS Assay for Lipid Storage Modulators in Drosophila S3 Cells;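 as to cell number change: cells counted by Cell Tracker Red CMTPX staining in the red channel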
Settings: BODIPY lipid droplet fluorescence, 18-24 h; for cell number change: measured here: cell count max response, cells fed with added oleic acid
Procedure, shortened: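 Drosophila S3 cells loaded with oleic acid (400 uM, as added) and compounds at several concentrations; lipid droplets imaged by 488-nm laser-scanning cytometry, 500–530 nm intensity and object ratio to cell channel. Percent activity normalized to 20 uM Triacsin C.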

[1] = measured here: lipid fluorescence (Fed channel) AC50, cells fed with added oleic acid
[2] = measured here: cell number channel AC50, cells fed with added oleic acid

Compound | cell number change [%] | AC50 [1] | AC50 [2]
Cc1ccccc1OCC(=O)NC(=S)Nc1ccc2c3c(cccc13)CC2 | -15.9 | 1.84 µM [falling, partial curve] | 
COc1cc(CCC(=O)NCc2ccc(F)cc2)cc(OC)c1OC | 5.41 | 6.51 µM [falling, single point] | 
COc1cccc(CNc2cccc(C(F)(F)F)c2)c1O | -42.6 | 23.1 µM [falling, single point] | 29.1 µM [falling, single point]
Nc1c(C(=O)NCCN2CCOCC2)c2nc3ccccc3nc2n1-c1cccc(F)c1 | -80.9 | 29.1 µM [falling, single point] | 14.6 µM [falling, single point]
CCOc1ccc2c(C)cc(=O)oc2c1OCC | -23.5 | 14.6 µM [falling, partial curve, poor fit] | 
O=[N+]([O-])c1ccc(Oc2ccc(-c3nnco3)cc2)c(Cl)c1 |  | 0.00461 µM [rising, full curve, poor fit] | 
CCN(CCCNC(=O)CCC(=O)N1CCOc2ccccc21)Cc1ccccc1 | 29.4 | 6.51 µM [rising, single point] | 
O=C(COc1ccccc1O)NC1CCCC1 | -18.5 |  | 0.259 µM [falling, partial curve, poor fit]
CCOC(=O)c1cc2sccc2n1CC(=O)Nc1ccc(OC)cc1 | -24.4 | 3.66 µM [falling, single point] | 2.59 µM [falling, full curve, poor fit]
CCOC(=O)CC(=O)Nc1cc(Cl)ccc1O | -1.69 | 29.1 µM [falling, single point] | 
Nc1nc(SCC(=O)NC2CCCCC2)n[nH]1 | -0.0276 |  | 
O=C(N/N=C/c1sc(N2CCOCC2)nc1-c1ccccc1)c1ccc(O)cc1 | -13.4 | 16.4 µM [falling, single point] | 
COc1ccc(CCNC(=O)c2ccc3nc[nH]c3c2)cc1 | 19.1 | 20.6 µM [rising, single point] | 
CCOC(=O)c1cnc2nc(SC)nn2c1N | -23.6 |  | 
CCc1ccc(C2=NN(C(=O)CCC(=O)O)C(c3cccs3)C2)cc1 (stereo unspecified) |  | 20.6 µM [falling, single point] | 
Cc1nnsc1C(=O)NC1CCCc2c1cnn2-c1ccc(F)cc1F (stereo unspecified) | -39.9 | 2.06 µM [falling, full curve] | 8.2 µM [falling, partial curve, poor fit]
COc1ccc(OC)c(S(=O)(=O)Nc2cc3c4c(c2)CC(=O)N4CCC3)c1 |  | 0.116 µM [rising, full curve] | 0.0651 µM [rising, full curve]
COc1ccc(S(=O)(=O)N(C)C)cc1NS(=O)(=O)c1ccc(F)c(F)c1F | -11.9 | 6.51 µM [falling, single point] | 
Cc1c(NC(=O)c2ccc(NS(=O)(=O)c3ccccc3)cc2)c(=O)n(-c2ccccc2)n1C | -14.4 | 29.1 µM [falling, single point] | 
Cc1cc2nnc(SCC(=O)NC3CCCCC3)n2c(N)n1 | 14.3 |  | 

Compound | cell number change [%] | AC50 [1] | AC50 [2]
c1ccc(OCCCc2nc(-c3ccccn3)no2)cc1 |  |  | 6.51 µM [rising, single point]
NC(=O)c1c(NC(=O)c2cccnc2Cl)sc2c1CCCC2 | -14.6 | 18.4 µM [rising, single point] | 0.731 µM [falling, full curve, poor fit]
Cc1ccc(NC(=O)c2c(C)noc2C)cc1 | 11.9 | 0.116 µM [rising, full curve, poor fit] | 
CSc1nc(C)c(CCOCc2ccc(F)cc2)c(=O)[nH]1 | -53.2 |  | 
N#CC1(NC(=O)COC(=O)c2ncc(Cl)c(Cl)c2Cl)CCCCC1 | -32.3 | 11.6 µM [falling, partial curve] | 14.6 µM [falling, partial curve]
CC12CC3CC(C)(C1)CC(C(=O)N1CCN(C(=O)c4ccco4)CC1)(C3)C2 | -29.4 | 20.6 µM [falling, partial curve] | 
CCOc1cc(N2CCOCC2)c(OCC)cc1NC(=O)Cn1cnc2c(=O)n(C)c(=O)n(C)c21 | 12.7 |  | 0.00517 µM [rising, full curve, poor fit]
CCOC(=O)c1cc2c(nc1N)CCCC2 | 10.6 | 29.1 µM [rising, single point] | 
C/C(=N\NC(=O)CSc1nc2ccccc2c(=O)n1-c1ccccc1C)c1cccs1 | -26.8 | 2.06 µM [rising, full curve] | 
O=C(Cc1n[nH]c(=O)c2ccccc12)OCC(=O)c1ccc2c(c1)OCCO2 | -11.2 |  | 
C[C@H](O)[C@H](O)[C@H]1CNc2nc(N)[nH]c(=O)c2N1 | -16.9 | 0.206 µM [falling, full curve, poor fit] | 
CCOC(=O)C1CCCN(c2ncnc3c2cnn3-c2cccc(C)c2)C1 (stereo unspecified) | -9.21 |  | 
CNC(=S)N1N=C(c2ccc(C)cc2)CC1c1cc(OC)ccc1OC (stereo unspecified) | 11.1 | 29.1 µM [falling, single point] | 
O=C(O)CCN1c2cccc3cccc(c23)S1(=O)=O | -10.5 | 35.5 µM [falling, single point] | 
Cc1cccc(NC(=O)COC(=O)c2ccccc2SCC(=O)N2CCCC2)c1 | -4.88 | 10.3 µM [falling, partial curve, poor fit] | 
Cc1nc(CNS(=O)(=O)c2cccs2)cs1 | -70.7 | 10.3 µM [falling, partial curve] | 25.9 µM [falling, partial curve]
COC(=O)NNC1=CC(=O)CC(C)(C)C1 |  | 0.58 µM [rising, single point] | 0.58 µM [rising, single point]
N#Cc1cccc(-n2nnnc2-c2ccc3c(c2)OCO3)c1 |  |  | 0.00517 µM [falling, partial curve, poor fit]
CCCC(=O)N1CCN(c2ccc(NC(=O)c3ccco3)cc2)CC1 | 13.7 | 1.64 µM [rising, partial curve] | 
Cc1nc2ncnn2c(C)c1Cc1cccc(C(F)(F)F)c1 | 44.2 | 6.51 µM [rising, partial curve, poor fit] | 

Compound | cell number change [%] | AC50 [1] | AC50 [2]
Cc1ccc(OC(F)F)c(NC(=O)Nc2ccc3c(c2)OCO3)c1 | 1.51 | 7.31 µM [rising, partial curve, poor fit] | 
CC1=C(C(=O)OCC2CCCO2)C(c2ccccc2OC(C)C)C2=C(CC(c3ccco3)CC2=O)N1 (stereo unspecified) |  |  | 4.61 µM [rising, partial curve]
CCN1CCN(C(=S)c2ccc(Cl)cc2)CC1 | 3.41 |  | 4.11 µM [falling, single point]
O=C(CNC(=O)c1ccccc1)NCC(=O)OCC(=O)c1ccccc1Cl | -4.42 | 29.1 µM [rising, partial curve] | 
COc1ccc(NC(=S)N2CCN(S(=O)(=O)c3ccc(OC)cc3)CC2)cc1 | 22 | 3.66 µM [rising, full curve, poor fit] | 2.06 µM [rising, partial curve]
CCc1nnc(NC(=O)C2CCCN2C(=O)Nc2ccccc2OC)s1 (stereo unspecified) | -8.06 | 0.326 µM [falling, full curve, poor fit] | 
Cc1ccc(C2C=NN(c3ccccc3)C2=O)cc1 (stereo unspecified) | 11.8 | 29.1 µM [rising, single point] | 
O=c1c(F)cn(C2CCCO2)c(=O)n1Cc1ccccc1F (stereo unspecified) | 11 | 0.184 µM [rising, partial curve] | 
CCOC(=O)/C(C#N)=C/c1cc(C)n(-c2ccc(Br)cc2)c1C | -36.2 | 1.3 µM [falling, partial curve] | 32.6 µM [falling, single point]
Cc1ccc(CNC(=O)CN2C(=O)COc3ccc(C)cc32)cc1 | -7.43 |  | 
Cc1ccc(C)c(NC(=O)c2cc(-c3cc(C)cc(C)c3O)n[nH]2)c1 | -18.6 | 29.1 µM [falling, single point] | 
Cc1c(C)c2ccc(OCC(=O)Nc3ccccc3C(N)=O)cc2oc1=O | 21.3 |  | 0.0326 µM [rising, full curve, poor fit]
O=S(=O)(c1ccc2ccccc2c1)N1CCN(C2CCN(Cc3ccccc3)CC2)CC1 |  | 4.11 µM [falling, partial curve] | 
CCCCNCC(O)(c1ccc(Cl)cc1)c1ccc(Cl)cc1 | -36.2 |  | 20.6 µM [falling, single point]
CCCN(CCC)c1nc2ccccc2n2c(C)nnc12 |  | 2.31 µM [rising, partial curve] | 2.31 µM [rising, partial curve]
CCN(CC)S(=O)(=O)c1ccc(Cl)c(C(=O)OC2CC(C)OC2=O)c1 (stereo unspecified) | 22.2 | 5.8 µM [rising, full curve, poor fit] | 
COc1ccc(C)cc1NC(=O)C(NC(=O)c1cc(OC)c(OC)c(OC)c1)C(C)C (stereo unspecified) | 49.1 |  | 
Cn1c(=O)[nH]c(Nc2ccccc2)c([N+](=O)[O-])c1=O | 11.1 | 0.92 µM [falling, full curve, poor fit] | 
COc1cc(C(=S)N2CCOCC2)ccc1OC(=O)c1cccc(C)c1 | -44.9 | 5.8 µM [falling, full curve] | 10.3 µM [falling, partial curve]
O=C(Nc1ccncc1)C1CC1c1ccccc1 (stereo unspecified) | -10.8 | 4.11 µM [rising, single point] | 

Among those listed so far, two have a COOH group:
Compound | cell number change [%] | AC50 [1] | AC50 [2]
CCc1ccc(C2=NN(C(=O)CCC(=O)O)C(c3cccs3)C2)cc1 (stereo unspecified) |  | 20.6 µM [falling, single point] | 
O=C(O)CCN1c2cccc3cccc(c23)S1(=O)=O | -10.5 | 35.5 µM [falling, single point] | 
